Results are given in words; binding and its absence hold for the method and conditions named. Some binding calls cover weakened binding; strength is not graded here.
How the values were obtained:
Assay in all cases: cryo-EM structure; freshly purified native OAD (not cross-linked) reconstituted on MTD in 20 mM HEPES pH 7.4, 100 mM KCl, 5 mM MgSO4, 1 mM DTT, on ice 45 min; apo state, no docking complex; two classes MTBS-1 and MTBS-2; MTD lattice refined from the same data; both purified
[1] = target: outer-arm dynein α heavy chain (T. thermophila) (UniProt Q22A67)
[2] = target: T1, outer-arm dynein intermediate chain IC2 (T. thermophila) (UniProt I7M008)
T1 sequence: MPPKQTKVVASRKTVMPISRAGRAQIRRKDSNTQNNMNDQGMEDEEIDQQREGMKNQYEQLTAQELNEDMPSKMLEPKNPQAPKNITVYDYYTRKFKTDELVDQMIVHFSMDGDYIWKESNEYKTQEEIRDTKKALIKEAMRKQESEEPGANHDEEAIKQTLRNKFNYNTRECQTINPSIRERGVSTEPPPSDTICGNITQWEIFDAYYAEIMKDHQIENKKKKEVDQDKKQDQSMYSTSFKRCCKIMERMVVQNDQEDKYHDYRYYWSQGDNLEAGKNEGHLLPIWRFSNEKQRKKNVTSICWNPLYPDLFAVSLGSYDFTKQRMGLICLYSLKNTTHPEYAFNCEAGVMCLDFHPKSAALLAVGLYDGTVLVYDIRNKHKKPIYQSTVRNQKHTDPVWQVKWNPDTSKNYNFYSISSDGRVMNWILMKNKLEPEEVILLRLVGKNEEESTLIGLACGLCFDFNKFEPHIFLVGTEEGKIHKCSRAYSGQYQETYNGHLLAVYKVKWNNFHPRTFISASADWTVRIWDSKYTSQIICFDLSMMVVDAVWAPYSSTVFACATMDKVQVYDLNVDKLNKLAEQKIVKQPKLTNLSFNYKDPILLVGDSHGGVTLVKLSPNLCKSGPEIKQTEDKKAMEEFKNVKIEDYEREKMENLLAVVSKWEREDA

By UniProt entry, the sequences of proteins in these tests, tags left out.
UniProt Q22A67: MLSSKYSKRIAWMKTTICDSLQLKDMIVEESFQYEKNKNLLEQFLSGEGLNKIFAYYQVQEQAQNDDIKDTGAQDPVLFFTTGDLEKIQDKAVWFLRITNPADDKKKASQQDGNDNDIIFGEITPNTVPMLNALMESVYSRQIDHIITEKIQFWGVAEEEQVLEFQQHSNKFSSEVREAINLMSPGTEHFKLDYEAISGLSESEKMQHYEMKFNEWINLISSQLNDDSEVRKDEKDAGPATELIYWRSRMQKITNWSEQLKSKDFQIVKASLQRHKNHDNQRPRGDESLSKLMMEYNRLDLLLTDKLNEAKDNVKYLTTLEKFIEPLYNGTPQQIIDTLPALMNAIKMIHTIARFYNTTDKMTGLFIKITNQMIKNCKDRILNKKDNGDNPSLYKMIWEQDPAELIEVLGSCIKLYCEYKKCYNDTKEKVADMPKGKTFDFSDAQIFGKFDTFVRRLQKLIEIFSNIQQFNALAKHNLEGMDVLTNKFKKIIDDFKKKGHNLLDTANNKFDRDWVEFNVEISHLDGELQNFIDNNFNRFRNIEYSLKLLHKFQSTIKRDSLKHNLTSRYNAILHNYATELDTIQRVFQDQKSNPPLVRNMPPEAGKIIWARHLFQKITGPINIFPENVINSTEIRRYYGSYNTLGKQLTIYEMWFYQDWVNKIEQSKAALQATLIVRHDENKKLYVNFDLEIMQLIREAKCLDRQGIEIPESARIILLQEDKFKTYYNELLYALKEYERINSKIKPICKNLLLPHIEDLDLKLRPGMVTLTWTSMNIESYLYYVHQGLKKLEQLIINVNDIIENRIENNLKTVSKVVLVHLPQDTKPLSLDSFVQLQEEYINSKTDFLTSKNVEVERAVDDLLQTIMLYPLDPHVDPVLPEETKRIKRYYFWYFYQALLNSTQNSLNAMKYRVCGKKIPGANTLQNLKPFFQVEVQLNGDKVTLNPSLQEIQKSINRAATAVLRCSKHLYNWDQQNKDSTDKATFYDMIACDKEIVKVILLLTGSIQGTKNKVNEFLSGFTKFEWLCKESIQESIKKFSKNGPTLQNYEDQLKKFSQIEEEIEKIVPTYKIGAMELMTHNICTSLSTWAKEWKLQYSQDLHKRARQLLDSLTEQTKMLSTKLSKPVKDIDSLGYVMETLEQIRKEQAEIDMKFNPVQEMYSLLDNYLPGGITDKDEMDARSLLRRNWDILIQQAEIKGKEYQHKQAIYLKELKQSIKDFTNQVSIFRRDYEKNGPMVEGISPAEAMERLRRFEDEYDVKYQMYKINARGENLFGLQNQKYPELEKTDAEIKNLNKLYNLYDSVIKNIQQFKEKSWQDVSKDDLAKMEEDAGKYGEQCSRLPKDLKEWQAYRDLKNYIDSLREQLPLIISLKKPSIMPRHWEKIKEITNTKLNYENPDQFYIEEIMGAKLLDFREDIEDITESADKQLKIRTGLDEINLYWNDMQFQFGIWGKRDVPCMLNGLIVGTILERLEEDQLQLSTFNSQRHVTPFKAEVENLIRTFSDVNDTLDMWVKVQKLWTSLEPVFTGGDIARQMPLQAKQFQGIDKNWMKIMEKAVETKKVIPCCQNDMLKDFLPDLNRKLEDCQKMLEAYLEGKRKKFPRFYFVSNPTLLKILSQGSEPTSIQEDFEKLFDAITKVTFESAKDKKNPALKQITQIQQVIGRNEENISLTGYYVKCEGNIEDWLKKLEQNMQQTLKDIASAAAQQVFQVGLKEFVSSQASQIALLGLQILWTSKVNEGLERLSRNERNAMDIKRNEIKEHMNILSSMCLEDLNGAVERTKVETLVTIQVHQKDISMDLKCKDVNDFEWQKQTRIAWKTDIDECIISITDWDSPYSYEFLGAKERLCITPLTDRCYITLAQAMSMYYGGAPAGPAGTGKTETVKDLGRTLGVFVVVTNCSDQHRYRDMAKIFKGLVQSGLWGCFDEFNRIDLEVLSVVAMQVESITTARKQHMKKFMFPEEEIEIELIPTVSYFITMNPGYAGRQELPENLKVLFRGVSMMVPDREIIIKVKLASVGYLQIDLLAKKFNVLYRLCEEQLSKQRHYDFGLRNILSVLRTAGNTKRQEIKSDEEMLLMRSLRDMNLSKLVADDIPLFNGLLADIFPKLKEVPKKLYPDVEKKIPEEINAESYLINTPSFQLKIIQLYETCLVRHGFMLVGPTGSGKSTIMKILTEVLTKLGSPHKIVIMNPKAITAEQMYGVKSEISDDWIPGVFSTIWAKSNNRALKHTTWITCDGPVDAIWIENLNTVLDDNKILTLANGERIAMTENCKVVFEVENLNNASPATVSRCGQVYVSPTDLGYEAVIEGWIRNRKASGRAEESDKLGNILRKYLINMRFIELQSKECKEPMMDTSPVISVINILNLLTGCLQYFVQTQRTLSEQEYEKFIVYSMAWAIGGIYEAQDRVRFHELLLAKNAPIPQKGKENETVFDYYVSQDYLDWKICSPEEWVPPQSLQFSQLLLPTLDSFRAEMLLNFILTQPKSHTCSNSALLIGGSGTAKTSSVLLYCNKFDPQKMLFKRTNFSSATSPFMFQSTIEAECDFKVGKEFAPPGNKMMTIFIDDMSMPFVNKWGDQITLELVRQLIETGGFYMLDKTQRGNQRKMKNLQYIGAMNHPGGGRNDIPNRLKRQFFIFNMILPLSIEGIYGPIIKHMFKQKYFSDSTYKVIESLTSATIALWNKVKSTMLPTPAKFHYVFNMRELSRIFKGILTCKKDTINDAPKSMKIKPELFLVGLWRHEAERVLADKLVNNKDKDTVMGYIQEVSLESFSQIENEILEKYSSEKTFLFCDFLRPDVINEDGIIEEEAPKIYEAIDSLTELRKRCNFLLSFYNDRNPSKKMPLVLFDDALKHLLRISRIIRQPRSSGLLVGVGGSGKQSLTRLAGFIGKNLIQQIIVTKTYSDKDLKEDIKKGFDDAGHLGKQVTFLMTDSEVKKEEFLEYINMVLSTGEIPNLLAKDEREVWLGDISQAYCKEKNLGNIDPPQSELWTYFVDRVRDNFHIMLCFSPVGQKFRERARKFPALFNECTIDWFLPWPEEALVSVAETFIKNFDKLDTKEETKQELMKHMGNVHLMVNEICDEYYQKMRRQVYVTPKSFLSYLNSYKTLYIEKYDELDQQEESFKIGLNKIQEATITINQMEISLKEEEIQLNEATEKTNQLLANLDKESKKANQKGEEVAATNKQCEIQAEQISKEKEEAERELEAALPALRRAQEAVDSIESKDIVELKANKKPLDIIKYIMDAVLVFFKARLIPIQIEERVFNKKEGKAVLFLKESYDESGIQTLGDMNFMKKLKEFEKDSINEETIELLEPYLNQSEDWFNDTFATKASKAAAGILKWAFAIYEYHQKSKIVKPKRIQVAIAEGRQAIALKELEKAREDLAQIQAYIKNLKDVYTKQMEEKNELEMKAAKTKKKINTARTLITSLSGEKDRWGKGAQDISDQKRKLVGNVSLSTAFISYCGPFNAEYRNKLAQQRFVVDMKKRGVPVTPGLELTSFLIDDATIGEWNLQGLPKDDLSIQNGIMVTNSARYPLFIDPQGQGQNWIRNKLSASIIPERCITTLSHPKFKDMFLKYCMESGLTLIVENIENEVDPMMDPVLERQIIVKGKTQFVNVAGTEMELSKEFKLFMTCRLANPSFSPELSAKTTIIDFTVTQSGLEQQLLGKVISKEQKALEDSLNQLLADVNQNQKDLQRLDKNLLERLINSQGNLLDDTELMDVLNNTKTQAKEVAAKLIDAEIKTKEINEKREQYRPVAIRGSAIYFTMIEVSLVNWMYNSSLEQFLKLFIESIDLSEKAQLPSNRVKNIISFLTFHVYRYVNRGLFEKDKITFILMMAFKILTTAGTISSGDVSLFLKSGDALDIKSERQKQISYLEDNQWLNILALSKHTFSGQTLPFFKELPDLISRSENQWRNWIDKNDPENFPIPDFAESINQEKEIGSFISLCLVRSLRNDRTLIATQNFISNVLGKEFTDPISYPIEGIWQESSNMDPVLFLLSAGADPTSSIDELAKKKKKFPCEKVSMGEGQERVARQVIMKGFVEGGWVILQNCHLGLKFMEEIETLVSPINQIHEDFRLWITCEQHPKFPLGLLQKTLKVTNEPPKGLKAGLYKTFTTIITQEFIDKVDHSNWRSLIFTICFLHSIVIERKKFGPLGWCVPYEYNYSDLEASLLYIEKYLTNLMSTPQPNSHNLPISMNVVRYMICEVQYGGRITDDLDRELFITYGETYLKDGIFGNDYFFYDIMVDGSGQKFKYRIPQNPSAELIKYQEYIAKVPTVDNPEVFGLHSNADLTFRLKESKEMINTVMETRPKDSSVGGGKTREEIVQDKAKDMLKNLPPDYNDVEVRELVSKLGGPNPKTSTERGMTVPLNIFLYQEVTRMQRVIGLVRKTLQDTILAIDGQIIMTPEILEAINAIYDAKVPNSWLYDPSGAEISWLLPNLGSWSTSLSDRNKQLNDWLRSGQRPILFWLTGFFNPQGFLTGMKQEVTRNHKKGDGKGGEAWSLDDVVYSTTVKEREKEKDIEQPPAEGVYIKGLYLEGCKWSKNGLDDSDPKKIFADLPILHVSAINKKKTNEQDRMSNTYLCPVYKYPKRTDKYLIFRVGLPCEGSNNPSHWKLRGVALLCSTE

[3] = target: T2, outer-arm dynein intermediate chain IC3 (T. thermophila) (UniProt Q23FU1)
T2 sequence: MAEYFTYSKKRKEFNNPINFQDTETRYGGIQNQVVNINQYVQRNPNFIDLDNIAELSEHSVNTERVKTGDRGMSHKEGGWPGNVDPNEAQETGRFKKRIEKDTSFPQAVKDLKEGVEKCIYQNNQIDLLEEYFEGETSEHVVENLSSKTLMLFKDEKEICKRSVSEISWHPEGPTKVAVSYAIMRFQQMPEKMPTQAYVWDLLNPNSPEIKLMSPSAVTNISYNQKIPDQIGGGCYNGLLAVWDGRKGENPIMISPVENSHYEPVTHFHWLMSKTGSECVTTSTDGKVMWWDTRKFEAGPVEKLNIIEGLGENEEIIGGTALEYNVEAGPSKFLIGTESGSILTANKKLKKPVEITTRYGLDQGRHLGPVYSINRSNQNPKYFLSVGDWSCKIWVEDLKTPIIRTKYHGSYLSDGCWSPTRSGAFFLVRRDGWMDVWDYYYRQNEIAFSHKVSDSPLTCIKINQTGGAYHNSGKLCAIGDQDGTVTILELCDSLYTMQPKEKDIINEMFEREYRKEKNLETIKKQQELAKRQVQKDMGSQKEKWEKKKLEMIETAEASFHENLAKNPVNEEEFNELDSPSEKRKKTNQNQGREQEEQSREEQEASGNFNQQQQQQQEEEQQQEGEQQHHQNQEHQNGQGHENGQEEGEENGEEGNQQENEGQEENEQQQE

[4] = target: T3, LC8-3b (LC8 homolog TTHERM_000442909) (T. thermophila) (UniProt W7XJB1)
T3 sequence: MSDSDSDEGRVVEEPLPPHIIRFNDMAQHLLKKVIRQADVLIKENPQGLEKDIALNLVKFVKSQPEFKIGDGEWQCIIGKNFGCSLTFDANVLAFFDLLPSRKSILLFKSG

[5] = target: T4, LC8-2b (LC8 homolog TTHERM_00023950) (T. thermophila) (UniProt Q22R86)
T4 sequence: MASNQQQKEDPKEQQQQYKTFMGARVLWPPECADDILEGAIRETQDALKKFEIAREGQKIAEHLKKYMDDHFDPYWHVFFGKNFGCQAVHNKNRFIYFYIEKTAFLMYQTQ

[6] = target: T5, LC8-3a (LC8 homolog TTHERM_01079060) (T. thermophila) (UniProt Q24CE5)
T5 sequence: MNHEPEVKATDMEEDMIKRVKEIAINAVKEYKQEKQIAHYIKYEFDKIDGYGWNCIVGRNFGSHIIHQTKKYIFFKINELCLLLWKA

[7] = target: T6, Tctex-b (LC2A) (T. thermophila) (UniProt C0HME8)
T6 sequence: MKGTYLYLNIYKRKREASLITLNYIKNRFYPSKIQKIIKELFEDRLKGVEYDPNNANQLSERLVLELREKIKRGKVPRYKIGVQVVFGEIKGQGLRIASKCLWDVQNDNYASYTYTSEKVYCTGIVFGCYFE

Measured: binding

B1: LC8-2b (LC8 homolog TTHERM_00023950) (protein, UniProt Q22R86 1-111)
chain: MASNQQQKEDPKEQQQQYKTFMGARVLWPPECADDILEGAIRETQDALKKFEIAREGQKIAEHLKKYMDDHFDPYWHVFFGKNFGCQAVHNKNRFIYFYIEKTAFLMYQTQ
binds: [1] | [2] | [3]

B2: Tctex-a (hypothetical Tctex homolog TTHERM_00392979) (protein, UniProt A4VEB3 1-117)
chain: MGDTDKEYISEEVQKAIDDSVKQVFGIKDDSSQVTITYNKDKVNLWTQQIIDYTIRGLNKLGKHFKYCVTAILQQTNHAGISVQITAYQDTNTDGSLIQCYEINDIYAIVSVFAMAV
binds: [4] | [1] | [5] | [2] | [6] | [3] | [7]

B3: LC8-3a (LC8 homolog TTHERM_01079060) (protein, UniProt Q24CE5 1-87)
chain: MNHEPEVKATDMEEDMIKRVKEIAINAVKEYKQEKQIAHYIKYEFDKIDGYGWNCIVGRNFGSHIIHQTKKYIFFKINELCLLLWKA
binds: [4] | [1] | [2] | [3]

B4: outer-arm dynein intermediate chain IC3 (protein, UniProt Q23FU1 1-670)
chain: MAEYFTYSKKRKEFNNPINFQDTETRYGGIQNQVVNINQYVQRNPNFIDLDNIAELSEHSVNTERVKTGDRGMSHKEGGWPGNVDPNEAQETGRFKKRIEKDTSFPQAVKDLKEGVEKCIYQNNQIDLLEEYFEGETSEHVVENLSSKTLMLFKDEKEICKRSVSEISWHPEGPTKVAVSYAIMRFQQMPEKMPTQAYVWDLLNPNSPEIKLMSPSAVTNISYNQKIPDQIGGGCYNGLLAVWDGRKGENPIMISPVENSHYEPVTHFHWLMSKTGSECVTTSTDGKVMWWDTRKFEAGPVEKLNIIEGLGENEEIIGGTALEYNVEAGPSKFLIGTESGSILTANKKLKKPVEITTRYGLDQGRHLGPVYSINRSNQNPKYFLSVGDWSCKIWVEDLKTPIIRTKYHGSYLSDGCWSPTRSGAFFLVRRDGWMDVWDYYYRQNEIAFSHKVSDSPLTCIKINQTGGAYHNSGKLCAIGDQDGTVTILELCDSLYTMQPKEKDIINEMFEREYRKEKNLETIKKQQELAKRQVQKDMGSQKEKWEKKKLEMIETAEASFHENLAKNPVNEEEFNELDSPSEKRKKTNQNQGREQEEQSREEQEASGNFNQQQQQQQEEEQQQEGEQQHHQNQEHQNGQGHENGQEEGEENGEEGNQQENEGQEENEQQQE
binds: [1]

B5: LC8-3b (LC8 homolog TTHERM_000442909) (protein, UniProt W7XJB1 1-111)
chain: MSDSDSDEGRVVEEPLPPHIIRFNDMAQHLLKKVIRQADVLIKENPQGLEKDIALNLVKFVKSQPEFKIGDGEWQCIIGKNFGCSLTFDANVLAFFDLLPSRKSILLFKSG
binds: [1] | [2] | [3]

B6: Tctex-b (LC2A) (protein, UniProt C0HME8 1-132)
chain: MKGTYLYLNIYKRKREASLITLNYIKNRFYPSKIQKIIKELFEDRLKGVEYDPNNANQLSERLVLELREKIKRGKVPRYKIGVQVVFGEIKGQGLRIASKCLWDVQNDNYASYTYTSEKVYCTGIVFGCYFE
binds: [4] | [1] | [5] | [6]

B7: LC7-a (unnamed LC7A homolog, TTHERM_00348650) (protein, UniProt Q22MV2 1-159)
chain: MIYKTSKEIQKSDQRIIQQRVENSIINNQIYQKSLKRKTSKRKVRHQANKKNFQKEMSEVEDTLNRIKTHKTVLGYLIVNSEGGVVRGAFKDEEESKNIANSIPLLTKKARSVVRDLDPTNDLVFLRIQTKLNEIMVAPDDEFSLIVIQTKGEKRDEND
binds: [2] | [3]

B8: outer-arm dynein intermediate chain IC2 (protein, UniProt I7M008 1-667)
chain: MPPKQTKVVASRKTVMPISRAGRAQIRRKDSNTQNNMNDQGMEDEEIDQQREGMKNQYEQLTAQELNEDMPSKMLEPKNPQAPKNITVYDYYTRKFKTDELVDQMIVHFSMDGDYIWKESNEYKTQEEIRDTKKALIKEAMRKQESEEPGANHDEEAIKQTLRNKFNYNTRECQTINPSIRERGVSTEPPPSDTICGNITQWEIFDAYYAEIMKDHQIENKKKKEVDQDKKQDQSMYSTSFKRCCKIMERMVVQNDQEDKYHDYRYYWSQGDNLEAGKNEGHLLPIWRFSNEKQRKKNVTSICWNPLYPDLFAVSLGSYDFTKQRMGLICLYSLKNTTHPEYAFNCEAGVMCLDFHPKSAALLAVGLYDGTVLVYDIRNKHKKPIYQSTVRNQKHTDPVWQVKWNPDTSKNYNFYSISSDGRVMNWILMKNKLEPEEVILLRLVGKNEEESTLIGLACGLCFDFNKFEPHIFLVGTEEGKIHKCSRAYSGQYQETYNGHLLAVYKVKWNNFHPRTFISASADWTVRIWDSKYTSQIICFDLSMMVVDAVWAPYSSTVFACATMDKVQVYDLNVDKLNKLAEQKIVKQPKLTNLSFNYKDPILLVGDSHGGVTLVKLSPNLCKSGPEIKQTEDKKAMEEFKNVKIEDYEREKMENLLAVVSKWEREDA
binds: [1]

Source: paper PMC8500839, “Structures of outer-arm dynein array on microtubule doublet reveal a motor coordination mechanism” (Nature Structural & Molecular Biology, 2021)
